Assay: general procedure: Fmoc solid-phase peptide synthesis; Pre-loaded Fmoc-Yaa-Wang resin (0.57 mmol/g); TBTU/DIEA
[1] = late stage modification step, TFA salt

Row | Substance | step yield (coupling step) [%] | step yield [1] [%]
1 | Boc-Glu(Gly3)-Thia | 49 | –
2 | Boc-Glu(Gly5)-Thia | 86 | –
3 | H-Glu(Gly3)-Thia | – | 94
4 | H-Glu(Gly5)-Thia | – | 98

— patent US7368421B2 (Probiodrug AG, priority 2001, dated 2008)
